Experimental findings from paper PMC7110135 are described below.

Sequences of proteins named here, by UniProt entry; tags and fusion partners are left off.
UniProt Q06609, whole entry: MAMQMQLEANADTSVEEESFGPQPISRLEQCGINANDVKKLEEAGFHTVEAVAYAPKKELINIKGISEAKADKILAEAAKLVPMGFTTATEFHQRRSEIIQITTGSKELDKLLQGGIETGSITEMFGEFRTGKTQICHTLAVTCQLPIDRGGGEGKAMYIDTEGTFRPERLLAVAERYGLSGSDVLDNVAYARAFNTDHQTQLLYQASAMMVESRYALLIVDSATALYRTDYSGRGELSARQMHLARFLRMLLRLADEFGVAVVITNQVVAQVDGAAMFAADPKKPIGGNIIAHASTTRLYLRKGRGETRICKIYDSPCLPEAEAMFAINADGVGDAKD
UniProt Q06609, whole entry F86E: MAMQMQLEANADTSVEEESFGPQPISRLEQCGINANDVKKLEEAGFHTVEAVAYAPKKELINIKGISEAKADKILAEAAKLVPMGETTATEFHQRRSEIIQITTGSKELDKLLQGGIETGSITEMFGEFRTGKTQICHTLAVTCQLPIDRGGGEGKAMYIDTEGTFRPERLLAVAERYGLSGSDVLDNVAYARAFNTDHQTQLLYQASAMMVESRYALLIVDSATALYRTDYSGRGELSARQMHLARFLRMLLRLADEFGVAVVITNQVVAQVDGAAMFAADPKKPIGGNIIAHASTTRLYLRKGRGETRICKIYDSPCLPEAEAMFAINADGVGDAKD

Construct, isoform or probe ends are uncertain for at least one entry. Weaker means in comparison with the reference protein, sequence or condition of that experiment. For some assays here: At least one verdict rests on a figure or table, not on a statement of the authors.

The target of one series is RAD51 WT (Homo sapiens) (UniProt Q06609). In words: SPR. The settings on record: Ca2+, SPR (Biacore T200, streptavidin CM5): 150 mM KCl, 20 mM Hepes pH 7.5, 2 mM DTT, 5 mg/ml BSA, 2.5 mM ATP, 10 mM CaCl2, 10% glycerol, 37 C, recombinant protein, protein details: untagged. For orientation: In SPR one partner is held on a chip, and binding of the other changes the refractive index at the surface.

The target of series [1] is RAD51 F86E (Homo sapiens) (UniProt Q06609). Briefly: SPR. The settings on record: 30 uM F86E, ATP, Ca2+; SPR (Biacore T200, streptavidin CM5): 150 mM KCl, 20 mM Hepes pH 7.5, 2 mM DTT, 5 mg/ml BSA, 2.5 mM ATP, 10 mM CaCl2, 10% glycerol, 37 C; recombinant protein; protein details: untagged; label: 5' Biotin (C6); single-stranded DNA.

Take “AAAAAAAAAAAAAAAAAAAAAAAAAAAAAAAAAAAAAAAAAAAAAAAAAA [ssDNA dA-50]”: the binding result with RAD51 WT (Homo sapiens) (ATP, very slow association, comparable to dN-50p, label: 5' Biotin (C6), single-stranded DNA) is recorded as “binds more weakly”; in series [1], “binds more weakly”. Turning to CGTCGATGAGCAGT [ssDNA dN-14], the binding result in the series with RAD51 WT (Homo sapiens) (3 uM RAD51, ATP, slow association, moderate dissociation, label: 3' Biotin-TEG, single-stranded DNA) is “binds more weakly”. For the sequence CTGACTGC (double strand) [dsDNA dN-8p], the binding result with RAD51 WT (Homo sapiens) (3 uM RAD51, ATP, slow association, moderate dissociation, two hexaethylene glycol linkers join 3' end of strand 1 to 5' end of strand 2, label: 3' Biotin-TEG on strand 2) is listed as “binds more weakly”.

With “TTGAGAGAGCAGACCACAATTATCACCTACACGACATCATTTTATATCAA [ssDNA dN-50]”, in series [1], the binding result is “binds more weakly”.
